Results as given in publication PMC3131257, “Hypericum lanceolatum (Hypericaceae) as a potential source of new anti-malarial agents: a bioassay-guided fractionation of the stem bark” (Malaria Journal, 2011).

Test system: LLC-MK2 monkey kidney epithelial cells
Test: cytotoxicity on LLC-MK2 monkey kidney epithelial cells
Settings: SI = CC50/IC50
Method: The cytotoxicity profiles of the extracts and pure compounds were estimated against LLC-MK2 monkey kidney epithelial cells according to the procedure previously described with some modifications. Cells were cultured under the same conditions as P. falciparum. Cells were distributed in 96-well plates at 20,000 cells per well in 100 μL culture medium, and allowed to attach and become confluent, for 24h. The medium was then removed completely the next day and 100 μL of fresh medium was added to all the wells, followed by 100 μL of crude extract (1000 μg/mL) or pure compounds (200 μg/mL) added in triplicate in row H. A two folds serial dilution was made upward to obtain concentration range of 250 - 3.90 μg/ml (crude extract) or 50 - 0.78 μg/ml (pure compounds), cells at row A serving as control without drug. The plates were incubated for five days at 37°C in 5% CO2 in air. Cells concentration and viability in the presence of extracts or pure compounds were compared with that of control cultures without extracts.

`C=C(C)[C@@H]1CC[C@]2(C(=O)O)CC[C@]3(C)[C@H](CC[C@@H]4[C@@]5(C)CC[C@H](O)C(C)(C)[C@@H]5CC[C@]43C)[C@@H]12` [HLT1, 3-hydroxy-lup-20(29)-en-28-oic acid] was tested. Which “Mean SI for W2mef” value (first SI column of Table 3) did it give?
Its value is 4.98.

What about the “Mean SI for W2mef” value (second SI column of Table 3 (same head printed)) of the same compound?
The value was 4.46.
